No constants are given. Whether binding was seen depends on the method and setting. Some entries that bind do so weakly or less than the wild type.
Biological target: T1, HGPRBMY3 (human, UniProt Q9H1C0 1-372)
T1 construct: on CHO-NFAT/Galpha15 cells for the reporter assay; also called GPCR19; GPR92; not shown: its amino
Test: cell-based phage-display panning on CHO-K1 cells transfected with HGPRBMY3; sequencing of eluted phage
Description: On the day of panning, growth medium was discarded and cells were washed with 10 ml PBS by allowing the buffer to flow over the cells. The PBS was removed and 10 ml Tris-EDTA detaching buffer (Gibco Cat. # 13150-016; no trypsin) was added for 2 min. Plates were tapped and/or pipetted up and down to detach cells. This was done quickly to minimize the exposure of the cells to this reagent. Cells were pelleted by centrifugation at 3K, and then washed with 20 ml PBS. Cells were resuspended cells in PBS with 2% milk blocking agent plus protease inhibitor (EDTA-free; Roche Cat. # 1 873 580). For each library, cell suspensions of ˜500 μl were used. Cells were blocked for 30-60 min with gentle rocking at room temperature. The integrin-coated wells were washed 3×in PBST, then blocked with 2% BSA in PBS for 30 min or more. To preadsorb against integrin, input phage was added to the integrin-coated wells, and incubated for 30 min or more.
At this stage, the blocked parental cells were divided into the required number of aliquots (500 μl aliquot/library). The phage supernatants were added from the integrin-preadsorption step. Preadsorption against the parental cells was carried out for 30 min or more with gentle rocking. […]
Standard procedures were used. […] Colonies were grown in liquid medium and analyzed by standard sequencing procedures.

Chains of the proteins cited; added tags and fusions are not shown. Lines headed by an entry give the natural chain unless they say otherwise; changes in a name come on top.
UniProt Q9H1C0: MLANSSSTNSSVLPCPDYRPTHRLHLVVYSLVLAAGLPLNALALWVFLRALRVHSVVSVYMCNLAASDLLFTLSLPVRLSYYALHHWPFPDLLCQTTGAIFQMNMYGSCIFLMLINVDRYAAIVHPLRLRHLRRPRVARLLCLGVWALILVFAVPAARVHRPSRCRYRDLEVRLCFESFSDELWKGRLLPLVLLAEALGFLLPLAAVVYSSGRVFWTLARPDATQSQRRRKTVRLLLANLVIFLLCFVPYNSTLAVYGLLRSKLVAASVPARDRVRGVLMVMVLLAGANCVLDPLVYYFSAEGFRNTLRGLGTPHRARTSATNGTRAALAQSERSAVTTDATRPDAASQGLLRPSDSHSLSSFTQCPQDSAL

Binder | binding
KLWELYPTVPAG [SEQ ID NO 39] | binds
KLWELYPTVPAG [SEQ ID NO 44] | binds

From patent US20040209808A1 (published 2004)
